# Laboratory results from patent US6913877B1 (priority 2000, dated 2005).
# “Also recorded” adds a separate entry of the source.
# Assays:
# [1] = system: Betta splendens erythrophores; assay type: cell-based
# [2] = system: melanophores
compound,measurement,setting,value
COc1ccc([C@@H]2Sc3ccccc3N(CCN(C)C)C(=O)[C@@H]2OC(C)=O)cc1 [Diltiazem],erythrophore pigment response after pre-treatment with norepinephrine,[1],produces pigment dispersion; also recorded: failed to induce pigment dispersion response
same,melanophore response,[2],does not alter melanophores
